# Percent effect of library compounds

By UniProt entry, the sequences of proteins in these tests, tags left out. Residues count along the entry.
UniProt A4I591, 1-473: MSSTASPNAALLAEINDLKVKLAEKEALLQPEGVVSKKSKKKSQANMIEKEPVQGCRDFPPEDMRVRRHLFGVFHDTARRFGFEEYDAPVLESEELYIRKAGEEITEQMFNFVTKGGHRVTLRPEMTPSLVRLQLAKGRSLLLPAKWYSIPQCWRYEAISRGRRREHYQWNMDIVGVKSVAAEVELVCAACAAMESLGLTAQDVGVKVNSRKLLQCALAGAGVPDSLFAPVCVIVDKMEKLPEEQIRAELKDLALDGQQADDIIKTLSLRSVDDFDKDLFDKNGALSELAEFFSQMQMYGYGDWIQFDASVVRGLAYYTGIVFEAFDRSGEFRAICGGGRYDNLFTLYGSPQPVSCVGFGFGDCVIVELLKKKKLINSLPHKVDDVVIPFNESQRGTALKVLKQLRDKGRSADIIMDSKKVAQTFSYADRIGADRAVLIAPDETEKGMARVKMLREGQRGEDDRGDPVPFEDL
UniProt Q4DA54, 1-478: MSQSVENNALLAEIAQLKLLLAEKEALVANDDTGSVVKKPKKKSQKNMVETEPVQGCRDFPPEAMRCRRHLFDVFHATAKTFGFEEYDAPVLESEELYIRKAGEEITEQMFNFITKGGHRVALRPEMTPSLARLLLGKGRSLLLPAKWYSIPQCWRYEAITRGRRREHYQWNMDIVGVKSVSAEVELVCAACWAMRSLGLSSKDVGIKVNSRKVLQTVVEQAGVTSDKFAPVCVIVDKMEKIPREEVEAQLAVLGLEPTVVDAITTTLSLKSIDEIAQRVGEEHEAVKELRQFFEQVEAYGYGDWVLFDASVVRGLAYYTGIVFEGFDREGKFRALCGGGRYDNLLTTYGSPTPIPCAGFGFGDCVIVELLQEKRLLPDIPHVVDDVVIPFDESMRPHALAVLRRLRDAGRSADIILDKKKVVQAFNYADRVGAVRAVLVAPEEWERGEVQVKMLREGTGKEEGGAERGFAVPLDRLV
UniProt Q8IDJ8, 1-583: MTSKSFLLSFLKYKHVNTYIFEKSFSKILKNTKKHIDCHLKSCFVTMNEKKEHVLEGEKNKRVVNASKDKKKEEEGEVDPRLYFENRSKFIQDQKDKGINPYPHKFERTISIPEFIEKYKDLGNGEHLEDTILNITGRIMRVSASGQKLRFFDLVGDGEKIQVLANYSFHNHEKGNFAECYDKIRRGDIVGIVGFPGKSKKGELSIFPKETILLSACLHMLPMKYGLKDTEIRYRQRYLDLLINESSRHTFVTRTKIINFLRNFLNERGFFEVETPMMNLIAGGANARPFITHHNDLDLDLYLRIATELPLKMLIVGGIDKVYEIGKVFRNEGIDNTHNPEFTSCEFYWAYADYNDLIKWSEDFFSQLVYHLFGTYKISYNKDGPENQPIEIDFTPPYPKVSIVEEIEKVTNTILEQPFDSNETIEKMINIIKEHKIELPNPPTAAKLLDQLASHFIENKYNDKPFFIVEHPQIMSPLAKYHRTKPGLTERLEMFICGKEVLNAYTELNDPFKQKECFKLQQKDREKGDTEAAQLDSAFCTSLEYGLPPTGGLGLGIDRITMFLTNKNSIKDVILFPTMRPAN

A: 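Histidine-tRNA ligase, Leishmania infantum (UniProt A4I591). Enzyme assay of histidyl-tRNA synthetase; the read-out is not stated. Compounds at 30 µM. Direction is inferred from retests: higher values go with stronger inhibition. The assay is labelled LdHisRS but filed under L. infantum. Of about 69,000 compounds tested this way, about 410 (0.6%) reached 50% or more in at least one test.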
B: 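Enzyme assay of histidyl-tRNA synthetase; the read-out is not stated. Target: Histidine-tRNA ligase, Trypanosoma cruzi CL Brener (UniProt Q4DA54). Concentration: 30 µM. Higher reads as stronger inhibition (inferred: compounds with an IC50 in retests scored well above the rest). About 69,000 compounds were tested under these conditions; 0.045% (about 31) showed 50% or more at least once.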
C: 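Enzyme assay of the cytosolic lysyl-tRNA synthetase in 384-well plates, read by luminescence. Target: Lysine-tRNA ligase, Plasmodium falciparum 3D7 (UniProt Q8IDJ8). Tested at 30 µM. Higher reads as stronger inhibition, judged from the few compounds that gave an IC50. Size under these conditions: about 69,000 compounds, about 49 of them at 50% or above in at least one test.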
D: 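Cell assay of Leishmania donovani living inside macrophages; the read-out is not stated. Tested at 30 µM. Higher reads as stronger inhibition (inferred: compounds with an IC50 in retests scored well above the rest). Of about 69,000 compounds tested this way, about 1,000 (1.5%) reached 50% or more in at least one test.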

Results are given as percent effect. The controls that fix the scale are not given in the record; negative values are as filed. This is an unselected part of the compounds tested. A dash means the value is not listed here; it may have been measured.

compound	A	B	C	D
CCn1cc(CN(C)S(=O)(=O)N2CCCC2c2ccco2)cn1 (stereo not shown)	8.547%	2.703%	4.879%	26.81%
N#Cc1ccc(S(=O)(=O)NC(=O)c2csc(-c3ccco3)n2)cc1	8.108%	5%	4.847%	-5.699%
COc1cc(NC(=O)N(C)Cc2ccc(Br)o2)ncn1	2.667%	5.978%	26.1%	12.94%
CCS(=O)(=O)CCNCc1cc(O)c2cc(C)cc(C)c2n1	17.74%	8.772%	7.638%	41.89%
CN(C)C(=O)C1CCc2nnc(C(C)(C)C)n21 (stereo not shown)	1.379%	2.959%	2.334%	6.655%
CNCC(=O)N1CCCC1c1nc(C(C)C)no1 (stereo not shown)	16.13%	4.082%	1.257%	12.81%
CCN1C(=O)CO[C@@H]2CN(C(=O)C3CCOCC3)C[C@H]21	20.59%	3.941%	1.649%	-
Cc1cnn(CCNCC(=O)NCC2(c3ccccc3)CC2)c1	0.885%	6.706%	0.06773%	-2.472%
OCC1CCCCN1CCn1ccnc1-c1ccc2c(c1)OCCO2 (stereo not shown)	9.375%	0%	-3.465%	35.46%
Cc1ccc(OCCN(C)Cc2nccn2C)c(C)c1	10.42%	1.266%	5.369%	-2.35%
CN1CC(c2ccccc2)CC12CCN(C(=O)c1ccc(F)cc1)CC2 (stereo not shown)	11.43%	6.612%	-0.6006%	6.563%
COC(=O)CCCN(C)C(=O)c1cc(F)cc2[nH]cnc12	16.95%	-1.463%	7.468%	-2.19%
COC(=O)c1ccc(C(=O)NS(=O)(=O)c2cncc(Br)c2)cc1	15.38%	3.333%	-0.6013%	36.97%
CCC1CCCCCN1C(=O)c1coc(S(=O)(=O)N(C)C)c1 (stereo not shown)	6.579%	-2.463%	4.76%	14.32%
CN(CCCNC(=O)C1CCc2cn[nH]c2C1)c1ccccc1 (stereo not shown)	8.108%	6.667%	5.735%	6.656%
CC(CC#N)NC(=O)c1cc(Br)c2c(c1)OCCO2 (stereo not shown)	12.16%	-4.151%	3.314%	0.841%
N#Cc1cc2c(nc1O)CCCCC2	16.49%	2.312%	3.139%	0.2212%
Cc1c[nH]c(CN2CCOC(c3ccc(Cl)cc3)C2)c(C)c1=O (stereo not shown)	17.14%	8.247%	5.098%	15.18%
CN(C)Cc1nc(C2(NC(=O)Nc3cccc(F)c3)CCCC2)no1	4.082%	2.051%	3.021%	-9.438%
Cn1c(N)nnc1SCC1OCCc2ccccc21 (stereo not shown)	13.16%	8.621%	6.7%	3.179%
COc1ccc(F)cc1S(=O)(=O)NCCn1cnc(C)cc1=O	19.57%	6%	1.273%	-29.5%
CCCS(=O)(=O)CCN1CCN(C(C#N)c2ccccc2)CC1 (stereo not shown)	21.74%	7.921%	12.77%	50.86%
Cc1cccnc1N1CCN(C(=O)C(C)n2ccnc2C(C)C)CC1 (stereo not shown)	17.58%	10.24%	1.301%	25.89%
O=C(O)c1csc(S(=O)(=O)N2CCCc3cccc(OC(F)F)c32)c1	11.76%	3.704%	8.691%	24.06%
CCn1nc2c(cc1=O)CN(Cc1coc(-c3ccccc3)n1)CC2	14.91%	4.942%	0.8681%	51.53%
Cc1cnc(NC(=O)NC(CCO)c2cccs2)s1 (stereo not shown)	16.07%	3.509%	4.599%	12.79%
CN(C)C(=O)CN1CCC2(C1)CN(CC1CCOC1)C2 (stereo not shown)	1.754%	5.376%	-1.28%	-
O=C(C1CCOC1)N1C[C@H]2CN(Cc3nccs3)C[C@H]2C1 (stereo partly shown)	4.511%	0.5525%	-5.833%	-
CC(C)c1noc(CCCC(=O)N2CCC(Cc3cccnc3)CC2)n1	-194.4%	4.511%	3.638%	3.27%
CCc1ccc(NC(=O)N2C[C@H]3C[C@H](C(=O)NC4CCC4)[C@@H](C2)O3)cc1	9.615%	2.793%	2.651%	-
O=C(CN1CCCC(Cn2cncn2)C1)NCc1ccccc1F (stereo not shown)	12.07%	6.78%	2.73%	28.46%
O=C(CCNc1ncccn1)NCCc1ccn(-c2ccccc2)n1	27.03%	-1.88%	7.985%	-14.81%
CSCC[C@H]1CN2CCC[C@H]2CN1Cc1cn(C)nc1C	14%	7.491%	-0.4336%	-
O=C1NCCCCC1NS(=O)(=O)N1CCCCC1 (stereo not shown)	17.54%	5.882%	3.074%	6.003%
CCN1CCC2(CC1)C(=O)N(c1ccc(C)nc1)CCN2CC(C)C.O=C(O)C(F)(F)F	-	-	-	27.8%
CCc1nnc(NC(=O)c2c3c(nn2C2CCS(=O)(=O)C2)CCC3)s1 (stereo not shown)	22.67%	-2.646%	5.549%	-10.72%
CC(C)N(C)Cc1ncn2c1CN(CC(=O)N(C)C)CCC2	10%	6.897%	1.314%	22.3%
Cc1noc(C)c1CN1CCO[C@H]2[C@H](Oc3ccccn3)CC[C@@H]21	28.57%	10.78%	5.503%	-
Cn1cccc1CN1CCC2(CC1)CCN(C(=O)c1cnccn1)CC2.O=C(O)C(F)(F)F	-	-	-	-8.438%
CC(=O)N1CCC2(CC1)C(=O)N(c1cccnc1)c1ccc(F)cc12	28.21%	0.5348%	6.064%	20.3%
O=C(c1cn(CC(=O)N2CCc3[nH]cnc3C2)c2ccccc12)C1CC1	25.71%	1.02%	-0.5337%	14.78%
COC1COC2(CCN(Cc3ccccc3C)CC2)C1 (stereo not shown)	10.26%	-3.659%	1.005%	-
Cc1cccnc1CNCC1(O)CCCN(CC2CCC2)C1=O (stereo not shown)	-27.06%	1.345%	4.643%	6.807%
O=C(c1cnccn1)N1CCN2C[C@H](OCc3ccccc3F)C[C@H]2C1	1.37%	2.97%	4.868%	-
Fc1ccc(OCCCNC2=NCCCN2)cc1	15.29%	11.06%	3.35%	-
Cn1ccnc1CN1CCC(c2nnc(Cn3cccn3)n2C)CC1	3.704%	0.4464%	0.7951%	1.068%
[H][C@@]12CS(=O)(=O)C[C@]1([H])N(Cc1cnn(-c3ccc(F)cc3)c1)CCN2C	-	-	-	12.84%

For reference, 3 entries once more:

* CC(C)c1noc(CCCC(=O)N2CCC(Cc3cccnc3)CC2)n1 | A: -194.4%; B: 4.511%; C: 3.638%; D: 3.27%
* Cc1cccnc1CNCC1(O)CCCN(CC2CCC2)C1=O (stereo not shown) | A: -27.06%; B: 1.345%; C: 4.643%; D: 6.807%
* O=C(O)c1csc(S(=O)(=O)N2CCCc3cccc(OC(F)F)c32)c1 | A: 11.76%; B: 3.704%; C: 8.691%; D: 24.06%

Measurements from “University of Dundee, Small-Polar-MMV Screening Library” (2021), ChEMBL document CHEMBL3988442.